Earlier results, collected in US9777123B2, “Sulfated beta-O4 low molecular weight lignins” (VIRGINIA COMMONWEALTH UNIVERSITY, priority 2013, dated 2017).
At least one compound was matched to its structure with a doubt left.

Tested on: coagulation factors IIa, Xa, IXa, XIa and VIIa
Details: at concentrations as high as 100 μg/ml; previous studies; cited from earlier work

CO[C@H]1O[C@H](COS(=O)(=O)O)[C@@H](O[C@@H]2O[C@@H](C(=O)O)[C@@H](O[C@H]3O[C@H](COS(=O)(=O)O)[C@@H](O[C@@H]4O[C@H](C(=O)O)[C@@H](O[C@H]5O[C@H](COS(=O)(=O)O)[C@@H](O)[C@H](O)[C@H]5NS(=O)(=O)O)[C@H](O)[C@H]4O)[C@H](OS(=O)(=O)O)[C@H]3NS(=O)(=O)O)[C@H](O)[C@H]2OS(=O)(=O)O)[C@H](O)[C@H]1NS(=O)(=O)O [fondaparinux]
inhibition of coagulation factors IIa, Xa, IXa, XIa and VIIa: do not inhibit
